Reference: patent US20180344199A1, “OPTIMIZED PLACEMENT OF CANNULA FOR DELIVERY OF THERAPEUTICS TO THE BRAIN” (The Regents of the University of California, priority 2010, published 2018)

Key:
[1] = CED infusion of GDL or free Gadoteridol into NHP putamen, real-time MRI distribution; assay type: in vivo, Rhesus macaques and Cynomolgus monkeys; settings: of 17 cases with relatively large leakage during CED
Method: Thirteen normal adult NHP, including 11 Rhesus macaques (7 male and 4 female, aged from 8 to 18 years; mean age 11.9 years, weight 4-9.4 kg) and 2 Cynomolgus monkeys (one male and one female, age 7 years for both; weight 5 and 7 kg respectively) were the subjects in the present study. Experimentation was performed according to the National Institutes of Health guidelines and to the protocols approved by the Institutional Animal Care and Use Committee at the University of California San Francisco (San Francisco, Calif.) and at Valley Biosystems (Sacramento, Calif.). Thirteen animals received a total of 25 intracranial infusion of GDL (2 mM) or free Gadoteridol (2 mM, Prohance; Bracco Diagnostics, Princeton, N.J.) into the putamen. Infusions were performed by previously established CED techniques for NHP (Bankiewicz, Eberling et al. 2000). GDL were prepared as previously described (Fiandaca, Varenika et al. 2008) (Krauze, McKnight et al. 2005).
Primates received a baseline MRI before surgery to visualize anatomical landmarks and to generate stereotactic coordinates of the proposed target infusion sites for each animals. NHPs underwent neurosurgical procedures to position the MRI-compatible guide cannula over the putamen. […] Vital signs, such as heart rate and PO2, were monitored throughout the procedure.
Briefly, the infusion system consisted of a fused silica reflux-resistant cannula (Fiandaca, Varenika et al. 2008) (Krauze, McKnight et al. 2005) that was connected to a loading line (containing GDL or free Gadoteridol), an infusion line with oil, and another infusion line with trypan blue solution. […] The length of each infusion cannula was measured to ensure that the distal tip extended 3 mm beyond the length of the respective guide. […]
NHPs were sedated with a mixture of ketamine (Ketaset, 7 mg/kg, IM) and xylazine (Rompun, 3 mg/kg, IM). […] The ear-bar and eye-bar measurements were recorded, and an intravenous line was established. […]

[2] = CED infusion of gadoteridol into NHP thalamus, real-time MRI distribution; assay type: in vivo, Cynomolgus monkeys and Rhesus macaques; settings: of 14 thalamic infusions

SMILES: CC(O)CN1CCN(CC(=O)[O-])CCN(CC(=O)[O-])CCN(CC(=O)[O-])CC1.[Gd+3] (centres unmarked) [Gadoteridol]
- cases with leakage into CC [1]: 100%
- cases with leakage into EC [1]: 5.9%
- cases with leakage into IC [1]: 17.6%
- cases with excellent distribution in the thalamus [2]: 57.1%
- cases with good distribution in the thalamus with leakage [2]: 42.9%
